Measured values: PubChem BioAssay AID330 (DTP/NCI, 2004)
The list is a part of this screen's results and no random one: it is rich in T/C values a quarter to a half above the control, in often repeated tests (any T/C) and in doses without a T/C. Other doses and runs of a compound stand elsewhere. T/C is the treated group as % of the vehicle group. Some entries give survivors of the animals treated and no T/C: the source files T/C as zero there, which appears to mark a toxic dose or a test without result, not a measured value. Some survivor counts are full or nearly so, which does not show that the dose was tolerated: survival well below the control is almost never listed, so the zero probably covers shortened survival too. Counts of survivors are from the toxicity check (mostly the fifth day) where no day follows; animals may have died later. Schedules are NCI's codes, read here as Q, the interval in days (D) or hours (H), X, the number of doses. Where survival is the endpoint, the PubChem record calls one and a half times the control and up active, and a quarter to a half above the control has no call in these data; cut-offs in other NCI protocols can differ. Some T/C values are followed by the survivors on the day toxicity was checked, most often the fifth; where none is given, no animal had died by that day. Some entries were tested several times; the results are listed from low to high. Brackets with × count equal records among those shown.

Test system: P388 leukemia ip, CD2F1 mice, survival T/C
Assay: NCI In Vivo Anticancer Drug Screen. Data for tumor model P388 Leukemia (intraperitoneal) in CD2F1 (CDF1) mice
Conditions: T/C endpoint: median survival time, higher T/C = longer survival

Question: What does the source list for `CC[C@]1(O)C[C@H]2CN(CCc3c([nH]c4ccccc34)[C@@](C(=O)OC)(c3cc4c(cc3OC)N(C=O)[C@H]3[C@@](O)(C(=O)OC)[C@H](OC(C)=O)[C@]5(CC)C=CCN6CC[C@]43[C@@H]65)C2)C1`?
Answer: T/C (dose: 0.03 mg/kg/injection, schedule: Q01DX009 (ip), vehicle: water): 108, 141, 142, 144, 180 % of control; T/C (dose: 0.06 mg/kg/injection, schedule: Q01DX009 (ip), vehicle: saline, evaluated on day 5): 168 % of control; T/C (dose: 0.06 mg/kg/injection, schedule: Q01DX009 (ip), vehicle: saline, evaluated on day 30): 145 and 190 % of control; T/C (dose: 0.06 mg/kg/injection, schedule: Q01DX009 (ip), vehicle: saline, evaluated on day 60): 172 % of control; T/C (dose: 0.06 mg/kg/injection, schedule: Q01DX009 (ip), vehicle: water): 118, 137, 144, 147, 150, 185, 207 % of control; T/C (dose: 0.06 mg/kg/injection, schedule: Q04DX003 (ip), vehicle: saline): 140 % of control; T/C (dose: 0.11 mg/kg/injection, schedule: Q01DX005 (ip), vehicle: saline): 125 % of control; T/C (dose: 0.12 mg/kg/injection, schedule: Q01DX009 (ip), vehicle: saline, evaluated on day 5): 172 % of control; T/C (dose: 0.12 mg/kg/injection, schedule: Q01DX009 (ip), vehicle: saline, evaluated on day 30): 125 and 205 % of control; T/C (dose: 0.12 mg/kg/injection, schedule: Q01DX009 (ip), vehicle: saline, evaluated on day 60): 172 % of control; T/C (dose: 0.12 mg/kg/injection, schedule: Q01DX009 (ip), vehicle: water): 125 % of control; T/C (dose: 0.13 mg/kg/injection, schedule: Q01DX009 (ip), vehicle: water): 123, 132, 149, 151, 157, 195 % of control; T/C (dose: 0.2 mg/kg/injection, schedule: Q01DX005 (ip), vehicle: saline): 147 % of control; T/C (dose: 0.2 mg/kg/injection, schedule: Q01DX009 (ip), vehicle: saline): 137 % of control [5 of 6 alive]; T/C (dose: 0.2 mg/kg/injection, schedule: Q04DX003 (ip), vehicle: water): 149 % of control; T/C (dose: 0.25 mg/kg/injection, schedule: Q01DX001 (ip), vehicle: saline, evaluated on day 5): 132 % of control; T/C (dose: 0.25 mg/kg/injection, schedule: Q01DX001 (ip), vehicle: saline, evaluated on day 30): 126, 137 (2×), 148, 150 (2×), 151, 157 % of control; T/C (dose: 0.25 mg/kg/injection, schedule: Q01DX001 (ip), vehicle: water, evaluated on day 5): 127 and 139 % of control; T/C (dose: 0.25 mg/kg/injection, schedule: Q01DX001 (ip), vehicle: water, evaluated on day 30): 134, 142, 144 % of control; T/C (dose: 0.25 mg/kg/injection, schedule: Q01DX009 (ip), vehicle: saline, evaluated on day 5): 205 % of control; T/C (dose: 0.25 mg/kg/injection, schedule: Q01DX009 (ip), vehicle: saline, evaluated on day 30): 97 and 150 % of control; T/C (dose: 0.25 mg/kg/injection, schedule: Q01DX009 (ip), vehicle: saline, evaluated on day 60): 209 % of control; T/C (dose: 0.25 mg/kg/injection, schedule: Q01DX009 (ip), vehicle: water): 97, 108, 144, 169, 183, 192, 224 % of control; T/C (dose: 0.25 mg/kg/injection, schedule: Q04DX003 (ip), vehicle: saline, evaluated on day 5): 163 % of control; T/C (dose: 0.25 mg/kg/injection, schedule: Q04DX003 (ip), vehicle: saline, evaluated on day 9): 119, 123, 125 % of control; T/C (dose: 0.25 mg/kg/injection, schedule: Q04DX003 (ip), vehicle: saline, evaluated on day 30): 178 % of control; T/C (dose: 0.25 mg/kg/injection, schedule: Q04DX003 (ip), vehicle: saline, evaluated on day 35): 167 % of control; T/C (dose: 0.25 mg/kg/injection, schedule: Q04DX003 (ip), vehicle: saline, evaluated on day 45): 160, 162, 174 % of control; T/C (dose: 0.25 mg/kg/injection, schedule: Q04DX003 (ip), vehicle: saline, evaluated on day 60): 172 % of control; T/C (dose: 0.26 mg/kg/injection, schedule: Q04DX003 (ip), vehicle: saline): 143, 144, 147 % of control; T/C (dose: 0.3 mg/kg/injection, schedule: Q01DX005 (ip), vehicle: saline): 126 % of control; survivor count (dose: 0.4 mg/kg/injection, schedule: Q01DX009 (ip), vehicle: saline): 6 of 6; T/C (dose: 0.43 mg/kg/injection, schedule: Q04DX003 (ip), vehicle: saline): 145, 165, 166, 170 % of control; T/C (dose: 0.5 mg/kg/injection, schedule: Q01DX001 (ip), vehicle: Klucel (hydroxypropylcellulose) (HPC)): 134 and 142 % of control; T/C (dose: 0.5 mg/kg/injection, schedule: Q01DX001 (ip), vehicle: saline with Tween-80): 131 % of control; T/C (dose: 0.5 mg/kg/injection, schedule: Q01DX001 (ip), vehicle: saline, evaluated on day 5): 119, 124, 133, 137, 141 (2×), 144, 145 % of control; T/C (dose: 0.5 mg/kg/injection, schedule: Q01DX001 (ip), vehicle: saline, evaluated on day 30): 127, 131, 135 (2×), 145, 150, 155, 160, 161, 162, 166, 178 % of control (2×); T/C (dose: 0.5 mg/kg/injection, schedule: Q01DX001 (ip), vehicle: water, evaluated on day 3): 149 % of control; T/C (dose: 0.5 mg/kg/injection, schedule: Q01DX001 (ip), vehicle: water, evaluated on day 5): 136, 138, 143, 145 (2×), 146, 156 % of control; T/C (dose: 0.5 mg/kg/injection, schedule: Q01DX001 (ip), vehicle: water, evaluated on day 6): 131, 135, 150 % of control; T/C (dose: 0.5 mg/kg/injection, schedule: Q01DX001 (ip), vehicle: water, evaluated on day 10): 108 % of control; T/C (dose: 0.5 mg/kg/injection, schedule: Q01DX001 (ip), vehicle: water, evaluated on day 20): 140 % of control; T/C (dose: 0.5 mg/kg/injection, schedule: Q01DX001 (ip), vehicle: water, evaluated on day 30): 129, 130 (2×), 133 (2×), 133 [5 of 6 alive], 135 (3×), 136 (4×), 138, 139 (2×), 142, 143 (3×), 145, 146 (3×), 149, 155 (2×), 159 [4 of 6 alive], 160, 161, 163 (3×), 171 % of control; T/C (dose: 0.5 mg/kg/injection, schedule: Q01DX001 (ip), vehicle: water, evaluated on day 35): 126 % of control; T/C (dose: 0.5 mg/kg/injection, schedule: Q01DX001 (iv), vehicle: saline): 131 % of control; T/C (dose: 0.5 mg/kg/injection, schedule: Q01DX005 (ip), vehicle: saline, evaluated on day 5): 135 % of control; T/C (dose: 0.5 mg/kg/injection, schedule: Q01DX005 (ip), vehicle: saline, evaluated on day 9): 117 % of control; T/C (dose: 0.5 mg/kg/injection, schedule: Q01DX005 (ip), vehicle: saline, evaluated on day 45): 206 and 207 % of control
